Measurements reported in PubChem BioAssay AID504774 (Drosophila RNAi Screening Center, 2011)
The screen tested about 23,000 reagents; below is an unselected part of those that have a named target and a result. 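Values are quantile-normalised luminescence on an arbitrary scale; higher means more cells surviving MMS.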 Further read-outs or replicates are left out here.

- Aim: 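Genes required for cells to withstand methyl methanesulphonate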 (primary screen)
- System: Drosophila Kc167 cells
- Reagents: long dsRNA against Drosophila genes, about 0.25 µg dsRNA per well
- Time to read-out: about 6 days: 3 days knock-down, then 3 days with or without MMS
- Treatment: methyl methanesulphonate 0.004% (w/v) for 3 days after knock-down
- Read-out: 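Viability in wells given MMS, read as ATP luminescence, normalised by quantiles plate by plate and averaged across replicates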
- Scale: mean viability with MMS: higher = more surviving cells after MMS

mean viability with MMS, by target and reagent
nec (necrotic): DRSC06769 3.71e6
Glys (Glycogen synthase): DRSC16130 3.50e6
CG42346: DRSC20622 3.52e6; DRSC20644 3.51e6
LysS (Lysozyme S): DRSC08677 3.63e6
Spn27A (Serpin 27A): DRSC03608 3.58e6
Elys: DRSC19571 3.33e6
CG4271: DRSC00649 3.60e6
Ada2b (transcriptional Adaptor 2b): DRSC16531 3.41e6

Part of the list above, set out differently.
{"target":"Glys (Glycogen synthase)","dsRNA":"DRSC16130","mean viability with MMS":3.50e6}
{"target":"CG42346","dsRNA":"DRSC20622","mean viability with MMS":3.52e6}
{"target":"CG42346","dsRNA":"DRSC20644","mean viability with MMS":3.51e6}

The listing continues.
mean viability with MMS, by target and reagent
stops (slow termination of phototransduction): DRSC15095 3.50e6; DRSC15096 3.58e6; DRSC15097 3.54e6
CG2611: DRSC02710 3.34e6
Dscam4 (Down syndrome cell adhesion molecule 4): DRSC08911 3.56e6; DRSC08913 3.73e6; DRSC10031 3.65e6; DRSC10329 3.31e6; DRSC10765 3.84e6
CG30458: DRSC06660 3.75e6
Git (G protein-coupled receptor kinase interacting ArfGAP): DRSC06620 3.39e6
Vps16B (Vacuolar protein sorting 16B): DRSC15304 3.58e6
tut (tumorous testis): DRSC08909 3.54e6
BCAS2: DRSC15693 3.47e6
RhoGDI: DRSC10919 3.65e6
Xpac (Xeroderma pigmentosum group A-like): DRSC18730 3.54e6
Cpr50Ca (Cuticular protein 50Ca): DRSC05454 3.50e6; DRSC06372 3.49e6; DRSC06375 3.55e6
